Patent US20190144541A1
Results are given in words; binding and its absence hold for the method and conditions named. Some results given as binding are weak or reduced against the parent protein; the word gives no strength.

Amino acid sequences for entries named in this document (tags omitted). Residues count along the entry.
UniProt Q15116, residues 25-167: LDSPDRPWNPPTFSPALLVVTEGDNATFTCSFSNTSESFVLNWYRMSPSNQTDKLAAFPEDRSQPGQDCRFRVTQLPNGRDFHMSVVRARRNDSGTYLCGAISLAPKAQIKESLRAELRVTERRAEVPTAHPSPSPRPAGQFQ

Tests used:
PD-1-His [1] = target: PD-1-His (UniProt Q15116); test: ELISA on coated PD-1-His (60 ng/well), anti-human Fc-HRP
PD-1-His [2] = target: PD-1-His (UniProt Q15116); test: ELISA, PD-1-His coated at 60 ng/well, antibody from 16 ug/mL in 4-fold dilutions, anti-human Fc-HRP detection
PD-1-His [3] = target: PD-1-His (UniProt Q15116); test: competition ELISA: antibody premixed with 4 ug/mL PD1-His, added to coated PDL1-Fc, bound PD1-His detected with anti-His-HRP
PD-1 on PD1-CHO cells = test: cell ELISA on fixed PD1-CHO cells, anti-human Fc-HRP

Measured: binding

B1: DFPD1-12 full-length anti-PD-1 monoclonal antibody (antibody, human IgG4 S228P, kappa, V domains shown)
VH: QVQLVESGGGVVQPGRSLRLDCKASGITFSNYGMHWVRQAPGKGLEWVAVIWYDGSKKYYADSVKGRFTISRDNSKNTLFLQMNSLRAEDTAVYYCATNNDYWGQGTLVTVSS
VL: DIQMTQSPSSLSASVGDRVTITCRASQSIHNYLDWYQQKPGKAPKLLIYNASTRATGVPSRFSGSGSGTDFTLTISSLQPEDFATYYCQQELHLPLTFGQGTKVEIKR
binds: PD-1-His [1] | PD-1-His [2] | PD-1-His [3] | PD-1 on PD1-CHO cells
